Laboratory results reported in PubChem BioAssay AID493014 (National Center for Advancing Translational Sciences (NCATS), 2011).
The other results are listed elsewhere or left out. Shown are side measurements of this screen, not its main read-out; they come without a call. The list favours compounds with an active or inconclusive main result. The note in brackets gives the kind of curve behind each potency; many fits are weak.

Test: qHTS Assay to Find Inhibitors of Chronic Active B-Cell Receptor Signaling
Conditions: ABC-DLBCL IkBa-CBG/CBR reporter, luminescence ratio (green luciferase fused to IkBa over red control in TMD8 lymphoma cells), 4 h
In short: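 Cell line TMD8 (human ABC DLBCL), stably expressing tet-inducible CBG68-IkBa fusion and CBR; IMDM/0.5% FBS; cpd up to 46 uM; dox induction, 4 h, 37C/5% CO2; dual luminescence; green/red ratio; MG132 control.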

[1] = measured here: CBR red luminescence, cell number
[2] = measured here: IkBa-CBG green luminescence

Row | Compound | AC50 [1] | AC50 [2]
1 | Cc1cccc2sc(NC(=O)C3=NN(c4ccccc4)C(=O)CC3)nc12 | 2.06 µM [falling, partial curve] | 
2 | CCOc1ccc(S(=O)(=O)Nc2ccc(C(=O)NCC(c3ccco3)N3CCCCC3)cc2)cc1 (stereo not given) | 16.4 µM [falling, single point] | 
3 | Cc1ccc(C(=O)COC(=O)c2cccs2)cc1 | 20.6 µM [falling, single point] | 
4 | COc1ccccc1OCCOCCOc1ccc(C)cc1Br | 18.4 µM [rising, partial curve, poor fit] | 
5 | O=c1cc(-c2ccc(O)cc2)oc2ccc3ccccc3c12 | 23.1 µM [falling, single point] | 
6 | Cn1c2ccccc2c(=O)c2cc(C#Cc3ccc(N)cc3)ccc21 | 11.2 µM [rising, single point] | 
7 | N#CC1(c2ccccc2)CCCN1C(=O)c1ccccc1Cl (stereo not given) | 6.51 µM [rising, partial curve, poor fit] | 
8 | COc1ccc([C@@H]2[C@@H]3C(=O)N(C(C)(C)C)C(=O)[C@@H]3[C@]3(Cc4ccccc4)C(=O)N(c4cccc(Cl)c4)C(=O)N23)cc1 |  | 29.1 µM [rising, partial curve, poor fit]
9 | Cc1cc(C(=O)CCl)c(C)n1-c1cccc([N+](=O)[O-])c1 | 12.6 µM [falling, partial curve] | 
10 | CCN(CC)c1ccc(C2Nc3cccc4cccc(c34)N2)cc1 | 7.08 µM [falling, full curve, poor fit] | 
11 | O=C(NNc1cccc(Cl)n1)c1c(F)cccc1F | 35.5 µM [rising, single point] | 
12 | Cc1cccc(NC(=O)Nc2ccc(C)c(C)c2)n1 | 0.461 µM [rising, full curve, poor fit] | 
13 | Cc1cc2c(c(=O)o1)C(Cc1ccccc1)C(C#N)=C(N)O2 (stereo not given) | 0.291 µM [falling, full curve, poor fit] | 
14 | CC1=NNC(=O)C1CCC(=O)N/N=C\c1ccc(Cl)c(Cl)c1 (stereo not given) | 12.6 µM [falling, partial curve] | 
15 | CCOc1cc(N2CCOCC2)c(OCC)cc1NC(=O)c1ccccc1C | 6.31 µM [rising, full curve] | 
16 | CCc1ccc(OC(=O)c2cncc(Br)c2)cc1 | 35.5 µM [falling, single point] | 
17 | Cc1cc(NS(=O)(=O)c2ccc(NC(=S)Nc3ccc(Cl)cc3C)cc2)no1 | 35.5 µM [falling, single point] | 
18 | CN(C)c1ccc(S(=O)(=O)N(C)C)cc1[N+](=O)[O-] | 20 µM [rising, single point] | 
19 | N#C/C(=C\c1ccc(F)cc1)c1n[nH]c(Cn2cncn2)n1 | 29.1 µM [falling, single point] | 
20 | Nn1c(SCc2ccccc2F)nnc1-c1ccccn1 | 31.6 µM [falling, single point] | 

Row | Compound | AC50 [1] | AC50 [2]
21 | O=C(O)c1cccc(NC(=S)NC(NC(=O)c2ccccc2[N+](=O)[O-])C(Cl)(Cl)Cl)c1 (stereo not given) | 0.0891 µM [falling, full curve, poor fit] | 
22 | CC#CCN1c2ccccc2[C@]23C[C@@H](C(=O)OC)N(C(=O)c4ccco4)C2=NC(C(=O)OC)=C(C(=O)OC)[C@H]13 | 6.31 µM [rising, single point] | 
23 | COc1ccc(C2(CNC(=O)c3cccc([N+](=O)[O-])c3)CCOCC2)cc1 | 13 µM [rising, partial curve] | 
24 | Cc1ccc(S(=O)(=O)N2CCCOC2CNC(=O)C(=O)NCc2cccs2)cc1 (stereo not given) | 20.6 µM [rising, partial curve] | 
25 | CCC(OC(=O)c1cccs1)C(=O)NCc1ccco1 (stereo not given) | 29.1 µM [falling, single point] | 
26 | COC(=O)c1cc(OC)c(OC)cc1NC(=O)Cc1ccccc1[N+](=O)[O-] | 3.16 µM [falling, partial curve, poor fit] | 
27 | CCN(Cc1ccccc1)C(=O)COC(=O)c1n[nH]c2ccccc12 | 9.2 µM [falling, partial curve] | 
28 | COc1ccccc1OCC(=O)NC1CCCc2ccccc21 (stereo not given) | 1.58 µM [falling, partial curve, poor fit] | 
29 | O=C(CSc1nccn1-c1ccc(Cl)cc1)NCc1ccc2c(c1)OCO2 | 2.59 µM [falling, partial curve, poor fit] | 
30 | COc1ccc(N(CC(=O)O)S(=O)(=O)c2ccc(C)cc2)cc1Cl | 31.6 µM [rising, single point] | 
31 | NS(=O)(=O)c1ccc(CNC(=O)/C=C/c2c(Cl)cccc2Cl)cc1 | 22.4 µM [falling, partial curve, poor fit] | 
32 | O=C(NC1CC1)C(=O)c1c[nH]c2ccccc12 | 17.8 µM [falling, single point] | 
33 | COc1cc(CC(=O)OCC(=O)Nc2ccccc2C#N)cc(OC)c1OC | 3.26 µM [rising, partial curve, poor fit] | 
34 | Cc1cccc([C@@H]2[C@@H]3C(=O)N(Cc4ccccc4)C(=O)[C@@H]3[C@]3(CC(C)C)C(=O)N(c4cccc(Cl)c4)C(=O)N23)c1 | 2 µM [falling, full curve, poor fit] | 
35 | O=C1NC(=O)/C(=C/c2ccc(O)cc2)S1 | 10 µM [falling, partial curve, poor fit] | 
36 | O=C(CCC(=O)Nc1ccccc1)N/N=C/c1ccncc1 | 7.94 µM [falling, partial curve, poor fit] | 
37 | O=C1CN(C(=O)COC(=O)CCS(=O)(=O)c2ccccc2Cl)c2ccccc2N1 | 25.9 µM [falling, single point] | 
38 | CNS(=O)(=O)c1cn(CC(=O)NCc2ccccc2OC)cc1S(=O)(=O)NC |  | 11.2 µM [rising, partial curve, poor fit]
39 | Cc1cc(C)cc(CC2CC(=O)N(c3ccc([N+](=O)[O-])cc3)C2=O)c1 (stereo not given) | 0.562 µM [rising, full curve, poor fit] | 
40 | COc1ccc(Cl)cc1NC(=O)c1noc2c1CCCC2 | 1.58 µM [rising, full curve, poor fit] | 

3 entries picked at random from those above, as already listed:
Row | Compound | AC50 [1] | AC50 [2]
29 | O=C(CSc1nccn1-c1ccc(Cl)cc1)NCc1ccc2c(c1)OCO2 | 2.59 µM [falling, partial curve, poor fit] | 
33 | COc1cc(CC(=O)OCC(=O)Nc2ccccc2C#N)cc(OC)c1OC | 3.26 µM [rising, partial curve, poor fit] | 
25 | CCC(OC(=O)c1cccs1)C(=O)NCc1ccco1 (stereo not given) | 29.1 µM [falling, single point] | 
